Experimental data from PubChem BioAssay AID1671190 (National Center for Advancing Translational Sciences (NCATS), 2021).
Hit rate of the full screen: of about 580,000 compounds, about 6,100 (1.1%) were called active. This list was built around the results that the source calls inconclusive (neither active nor inactive); the mix of calls is not that of the screen. Calls come from the whole dose curve; as a rule, active = well fitted inhibition curve with a large enough effect; inconclusive = small, poorly fitted or top-dose-only effect, or another doubt; inactive = no such curve, though single readings can be large or run the other way. A potency beside an inconclusive call is a rough fit, not a confirmed value.

Chains of the proteins cited; added tags and fusions are not shown. Lines headed by an entry give the natural chain unless they say otherwise; changes in a name come on top.
UniProt P18054: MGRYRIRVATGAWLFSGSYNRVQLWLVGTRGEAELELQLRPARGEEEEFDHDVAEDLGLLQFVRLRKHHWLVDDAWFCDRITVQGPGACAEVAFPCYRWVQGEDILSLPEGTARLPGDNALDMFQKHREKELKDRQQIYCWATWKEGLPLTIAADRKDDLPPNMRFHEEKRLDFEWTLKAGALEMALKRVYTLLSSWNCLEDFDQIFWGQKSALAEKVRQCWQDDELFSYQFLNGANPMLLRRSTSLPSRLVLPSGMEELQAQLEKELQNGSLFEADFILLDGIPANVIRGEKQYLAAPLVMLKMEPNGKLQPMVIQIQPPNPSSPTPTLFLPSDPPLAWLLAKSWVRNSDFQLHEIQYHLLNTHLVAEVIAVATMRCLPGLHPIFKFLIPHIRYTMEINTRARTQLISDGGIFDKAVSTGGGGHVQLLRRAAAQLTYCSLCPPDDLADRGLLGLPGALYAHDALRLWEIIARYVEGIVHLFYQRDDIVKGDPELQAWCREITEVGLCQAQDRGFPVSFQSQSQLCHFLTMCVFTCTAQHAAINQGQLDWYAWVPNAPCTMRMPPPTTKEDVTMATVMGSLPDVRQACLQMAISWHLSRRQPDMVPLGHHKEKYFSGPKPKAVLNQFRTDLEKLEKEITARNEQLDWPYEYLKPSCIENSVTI

molecular target: Polyunsaturated fatty acid lipoxygenase ALOX12 (Homo sapiens) (UniProt P18054); test: Primary qHTS assay for inhibitors of human arachidonate 12S-lipoxygenase (ALOX12): Round 2; conditions: purified 12hLO, xylenol orange hydroperoxide absorbance; activity change, negative = inhibition: at 108 µM (top of the series) unless noted
Outline: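 Purified human 12hLO at 150 nM in 25 mM Hepes, 0.01% Triton X-100, pH 7.0, preincubated 15 min at room temperature with compound. Reaction started with 40 uM arachidonic acid, 30 min at room temperature. Hydroperoxide measured by Fe-xylenol orange, 573/405 nm absorbance ratio.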
% is set by controls: 0 for no effect and ±100 for the full control effect; potency is the fitted concentration of half-maximal effect.

Structure (SMILES) | Potency | activity change, negative = inhibition
O=C(NCCc1ccc(C(F)(F)F)cc1)c1cccnc1 | inconclusive: 35.5 µM [inhibitor, single point] | 
Cc1ccc(NC(=O)CSc2nc3cc4c(cc3c(=O)n2Cc2ccco2)OCO4)c(C)c1 | inconclusive: 35.5 µM [inhibitor, partial curve, poor fit] | 
CCn1c(SCc2ccc(F)cc2Cl)nnc1-c1nonc1NC(C)=O | inconclusive: 70.8 µM [inhibitor, partial curve, poor fit] | 
CCN1CCN(C(=O)Nc2ccccc2OC)CC1 | inconclusive: 0.562 µM [inhibitor, full curve, poor fit] | 
COc1ccc(NC(=O)Cc2c(C)c3ccc(O)c(C)c3oc2=O)c(OC)c1 | inconclusive: 0.282 µM [inhibitor, full curve, poor fit] | 
CC1CCC(NC(=O)CCS(=O)(=O)c2ccc3c(c2)NC(=O)CS3)CC1 (stereo not drawn) | inactive | 
CC(=O)c1c(C)[nH]c(C(=O)OCC(=O)Nc2sc3c(c2C#N)CCC(C)C3)c1C (stereo not drawn) | inconclusive: 44.7 µM [inhibitor, partial curve, poor fit] | 
CCOCC(=O)Nc1nc2ccc(OC)cc2s1 | inconclusive: 89.1 µM [inhibitor, partial curve, poor fit] | 
Cc1ccccc1C(=O)Nc1ccc(C(=O)NNC(=S)Nc2ccccc2)cc1 | inconclusive: 1.78 µM [inhibitor, full curve, poor fit] | 
CN(C)c1ccc(C(=O)OCC(=O)N2CCOCC2)cc1 | inactive | 
COc1ccc(S(=O)(=O)N2CCOCC2)cc1NC(=O)c1c(-c2ccccc2)noc1C | inconclusive: 50.1 µM [inhibitor, partial curve, poor fit] | 
COc1cccc(NC(=O)C2CC(=O)N(c3n[nH]c4cc(Br)ccc34)C2)c1 (stereo not drawn) | inconclusive: 70.8 µM [inhibitor, single point] | 
Cc1cc(C)nc(NC(N)=NCCc2ccccc2)n1 | inactive | 
NS(=O)(=O)c1ccc(CCNC(=O)Cn2c(-c3cccs3)cc3ccccc32)cc1 | inactive | 
COc1ccc(C(=O)Nc2ccc(Nc3nc(C)cc(Nc4ccc(C)cc4)n3)cc2)cc1OC | inconclusive: 89.1 µM [inhibitor, partial curve, poor fit] | 
O=C1C2=C(SCCS2)C(=O)N1CCCO | inconclusive: 56.2 µM [inhibitor, partial curve, poor fit] | 
COc1cc(/C=C2\SC(=S)N(NS(=O)(=O)c3ccccc3)C2=O)cc(OC)c1OC | inactive | 
C[C@]12CC[C@@H]3c4ccc(O[C@@H]5O[C@H](C(=O)O)[C@@H](O)[C@H](O)[C@H]5O)cc4CC[C@H]3[C@@H]1C[C@@H](O)[C@@H]2O | inconclusive: 50.1 µM [inhibitor, partial curve, poor fit] | 
CC1CCCN(CCOCCOc2ccccc2-c2ccccc2)C1 (stereo not drawn) | inconclusive: 1.78 µM [inhibitor, full curve, poor fit] | 
Cc1ccc(CNC(=O)Cn2c(-c3ccccc3)nc(C)c(CCO)c2=O)cc1 | inconclusive: 79.4 µM [inhibitor, partial curve] | 
O=C(Cn1ccn2nc(-c3ccccc3)c(CO)c2c1=O)Nc1cc(F)ccc1Cl | inconclusive: 50.1 µM [inhibitor, partial curve] | 

Structure (SMILES) | Potency | activity change, negative = inhibition
C/C(=N\NC(=O)C1CCCCC1)c1ccc2ccccc2c1 | inconclusive: 126 µM [inhibitor, partial curve, poor fit] | 
CCCCN(C(=O)c1ccc([N+](=O)[O-])o1)c1c(N)n(CC(C)C)c(=O)[nH]c1=O | inconclusive: 10 µM [inhibitor, partial curve, poor fit] | 
CCOC(=O)c1ccc(N2Cc3ccccc3C2=N)cc1 | inactive | 
Cn1c(Cc2ccccc2)nnc1SCC(=O)N1CCN(c2ccccc2)CC1 | inconclusive: 100 µM [inhibitor, partial curve, poor fit] | 
COc1ccc(CCNC(=O)c2cc(-c3cc(Cl)ccc3O)n[nH]2)cc1OC | inconclusive: 14.1 µM [inhibitor, full curve] | 
O=C(NCCO)c1cc(-c2ccc(Cl)cc2)nc2ccccc12 | inconclusive: 39.8 µM [inhibitor, partial curve, poor fit] | 
CC(C)c1ccc(NC(=O)C[n+]2ccn(C3=C([O-])c4ccccc4C3=O)c2)cc1 | inactive | 
COc1cccc([S+](=O)([O-])N2CCC(N3Cc4ccccc4C3=O)CC2)c1 |  | inactive: 4.13% [at 6.33 µM]
O=C(c1ccc(F)cc1)N1CCC2(CN[S+](=O)([O-])c3ccccc3N2)C1 (stereo not drawn) | inconclusive: 39.8 µM [inhibitor, partial curve, poor fit] | 
Cc1ccc(C(=O)/C=C/c2c[nH]c3ccccc23)cc1 | inconclusive: 14.1 µM [inhibitor, partial curve, poor fit] | 
Cc1cc(OCC(=O)NC2CCc3ccccc32)ccc1C(C)C (stereo not drawn) | inconclusive: 89.1 µM [inhibitor, single point] | 
CCOC(=O)N1CCC(NC(=O)c2cnn(-c3ccc(F)cc3F)c2C2CCN(C(=O)OC(C)(C)C)CC2)CC1 | inactive | 
CNC(=S)N(CCc1c(C)[nH]c2ccc(C)cc12)Cc1cccs1 | inconclusive: 25.1 µM [inhibitor, single point] | 
CC(C)Cc1nc(N2CCOCC2)c(C#N)c2c1CCC2 | inconclusive: 126 µM [inhibitor, partial curve, poor fit] | 
N#CC1(C(=O)Nc2cccc(Br)c2)CCCC1 | inconclusive: 100 µM [inhibitor, single point] | 
Cc1nnc(SCC(=O)Nc2sc3c(c2C#N)CCCC3)n1CC(C)C | inactive | 
Cc1ccc(S(=O)(=O)n2c([N+](=O)[O-])cnc2C)cc1C | inconclusive: 44.7 µM [inhibitor, partial curve, poor fit] | 
COC(=O)[C@]12C[C@H](CC(=O)NCCCCc3ccccc3)C(=O)N(Cc3ccccc3)C1=C[C@H](C1CCCC1)O[C@@H]2C | inactive | 
CN(Cc1cccc(F)c1)C(=O)c1ccc(S(=O)(=O)N2CCCCCC2)cc1 | inactive | 
CCCNC(=O)c1ccc(OC(C)C)cc1 | inconclusive: 7.08 µM [inhibitor, full curve, poor fit] | 
COc1ccc(-c2nc3cnc(Oc4cccc(Cl)c4)nc3n(CCC#N)c2=O)cc1 | inconclusive: 28.2 µM [inhibitor, single point] | 

Copied from the list:
Potency, COc1ccc(-c2nc3cnc(Oc4cccc(Cl)c4)nc3n(CCC#N)c2=O)cc1 reads inconclusive: 28.2 µM [inhibitor, single point]
Potency, CC(C)c1ccc(NC(=O)C[n+]2ccn(C3=C([O-])c4ccccc4C3=O)c2)cc1 reads inactive
Potency, CCOC(=O)c1ccc(N2Cc3ccccc3C2=N)cc1 reads inactive
Potency, CN(Cc1cccc(F)c1)C(=O)c1ccc(S(=O)(=O)N2CCCCCC2)cc1 reads inactive

Next part:

Structure (SMILES) | Potency | activity change, negative = inhibition
CCOc1cc(/C=C2/NC(=O)N(CC(=O)Nc3cccc(C)c3)C2=O)ccc1OCC(N)=O | inactive | 
O=C(C1CCCN(S(=O)(=O)c2ccc(Br)s2)C1)N1CCN(c2cccc(Cl)c2)CC1 (stereo not drawn) | inconclusive: 50.1 µM [inhibitor, partial curve, poor fit] | 
Cc1nc(N)nc(N)c1/C=C/C(C)(C)c1ccc(Cl)cc1 | inconclusive: 31.6 µM [inhibitor, partial curve, poor fit] | 
COc1ccc(S(=O)(=O)N2CCOCC2)cc1C(=O)NCc1ccccc1CN1CCCC1 | inactive | 
CCC(C)Sc1oc(-c2ccco2)nc1S(=O)(=O)c1ccc(C)cc1 (stereo not drawn) | inconclusive: 79.4 µM [inhibitor, partial curve, poor fit] | 
COC(=O)C1=C(C)N(Cc2ccccc2C(F)(F)F)C(=NCc2ccc(OC)cc2)NC1c1ccccc1 (stereo not drawn) | inconclusive: 79.4 µM [inhibitor, partial curve, poor fit] | 
COc1ccc(-c2nn(-c3ccccc3)cc2/C=N/NC(=S)NC(C)C)cc1OC | active: 35.5 µM | 
Cc1ccc(C(=O)COC(=O)COc2ccccc2[N+](=O)[O-])s1 | inconclusive: 89.1 µM [inhibitor, single point] | 
OCc1cc(C(O)CNCCCCCCOCCCCc2ccccc2)ccc1O (stereo not drawn) | inactive | 
C[C@@H]1CN([C@H](C)CO)C(=O)CCCn2nncc2CO[C@H]1CN(C)Cc1ccccc1C(F)(F)F | inconclusive: 112 µM [inhibitor, single point] | 
CC1=C(C(=O)N2CCOCC2)CC(CC(=O)NC2CCCC2)C(=O)N1CCCN1CCCC1=O (stereo not drawn) | inactive | 
COc1ccc(NC(=S)NCCCN2CCOCC2)cc1 | inconclusive: 100 µM [inhibitor, partial curve, poor fit] | 
Cc1ccc(CNc2ncnc3c2cnn3-c2ccc(Cl)cc2)cc1 | inconclusive: 70.8 µM [inhibitor, partial curve, poor fit] | 
Cc1cc(=O)n(CC(=O)Nc2cccc(C#N)c2)c(N2CCOCC2)n1 | inactive | 
CC(C)C[C@@H]1N[C@H](C(=O)NC2CCCC2)Cc2c[nH]c3cccc1c23 | inactive | 
ONC(=Nc1ccccc1)c1ccccc1Cl | inconclusive: 56.2 µM [inhibitor, partial curve, poor fit] | 
NC(=O)C1CCCN(C(=O)c2cccc(NC(=O)c3cccs3)c2)C1 (stereo not drawn) | inconclusive: 63.1 µM [inhibitor, partial curve, poor fit] | 
O=C(NC1CCS(=O)(=O)C1)c1cccc(Br)c1 (stereo not drawn) | inconclusive: 0.355 µM [inhibitor, full curve, poor fit] | 
C#CCN1C(C)=C(C(=O)OC)C(c2cccc([N+](=O)[O-])c2)C(C(=O)OCC)=C1C (stereo not drawn) | inactive | 
O=C(Nc1nnc(S(=O)(=O)N2CCOCC2)s1)c1ccccc1F | inconclusive: 158 µM [inhibitor, single point] | 
Cc1ccc(NC(=O)C(C)Sc2nc(-c3ccccc3)c(C#N)c(=O)[nH]2)c(C)c1 (stereo not drawn) | inconclusive: 50.1 µM [inhibitor, partial curve, poor fit] | 
